This is an account of results in PMC10520872.

For the assay, the target named is T1, Mst77F-V5 (male-specific transcript 77F, recombinant full-length with a C-terminal V5 tag) (Drosophila melanogaster) (UniProt P16909).
T1 sequence: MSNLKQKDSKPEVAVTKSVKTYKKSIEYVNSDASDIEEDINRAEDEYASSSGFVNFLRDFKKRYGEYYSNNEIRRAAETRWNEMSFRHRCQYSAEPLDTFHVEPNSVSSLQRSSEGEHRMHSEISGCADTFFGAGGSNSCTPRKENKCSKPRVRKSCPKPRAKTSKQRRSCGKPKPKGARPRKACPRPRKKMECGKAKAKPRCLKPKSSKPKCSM
As to the kind of experiment: co-IP; co-immunoprecipitation of recombinant proteins with free Mst77F-V5 in solution (Fig. S1C); details in Supplementary Experimental Procedures; both purified.

These are yes or no findings as the source states them, for the method shown. Some results given as binding are weak or reduced against the parent protein; the word gives no strength. Sequences can lack the tags named with a protein.

B1: recombinant NLP (nucleoplasmin-like protein) (protein, UniProt Q27415 1-152)
chain: MAEESFYGVTLTAESDSVTWDVDEDYARGQKLVIKQILLGAEAKENEFNVVEVNTPKDSVQIPIAVLKAGETRAVNPDVEFYESKVTFKLIKGSGPVYIHGHNIKDDVEVVDMEEDDEEDDVAEDEEDEHPKKRAKIENAADGKNAKNNKKK
B1: the binding result is “binds”.

B2: recombinant NAP1 (nucleosome assembly protein 1) (protein, UniProt Q9W1G7 1-370)
chain: MDAPAEGHVDPESCNEIEDEKSGSDCQSMPAYMNSVMRRQYLQQMVKMLPAPVQNRIVFLKNLQLQHLNIEAQFFEDVYKLEQKYQVQYQPLFDKRREIIEGKVDPAEEKPQWKEPESSTDNEADAEHFREALSSLKSIPKDAKGIPGFWLTVFRNTAIMSEMVQPHDEPAIRKLIDISIKYDNGHSYTLEFHFDKNEYFSNSVLTKQYVLKSTVDPNDPFAFEGPEIYKCTGCTINWEKKMNLTVKTIRKKQKHKERGAVRTIVKQVPTDSFFNFFSPPEVPSDQEEVDDDSQQILATDFEIGHFLRARIIPKAVLYYTGDIVDDEDDEDEEEYDENEEDEYDDDDAPPPKGPKSAGIKKQSPNDCPNQ
On to B2, for which the binding result is listed as “binds”.
